Source: PMC2398774
These are yes or no findings as the source states them, for the method shown. Binding seen in cells or lysates may run through a third protein. Some binding calls cover weakened binding; strength is not graded here. Blank lines part the entries; values can stand above or below the binder they belong to.

By UniProt entry, the sequences of proteins in these tests, tags left out. Residues count along the entry.
UniProt Q01705, residues 1744-2531: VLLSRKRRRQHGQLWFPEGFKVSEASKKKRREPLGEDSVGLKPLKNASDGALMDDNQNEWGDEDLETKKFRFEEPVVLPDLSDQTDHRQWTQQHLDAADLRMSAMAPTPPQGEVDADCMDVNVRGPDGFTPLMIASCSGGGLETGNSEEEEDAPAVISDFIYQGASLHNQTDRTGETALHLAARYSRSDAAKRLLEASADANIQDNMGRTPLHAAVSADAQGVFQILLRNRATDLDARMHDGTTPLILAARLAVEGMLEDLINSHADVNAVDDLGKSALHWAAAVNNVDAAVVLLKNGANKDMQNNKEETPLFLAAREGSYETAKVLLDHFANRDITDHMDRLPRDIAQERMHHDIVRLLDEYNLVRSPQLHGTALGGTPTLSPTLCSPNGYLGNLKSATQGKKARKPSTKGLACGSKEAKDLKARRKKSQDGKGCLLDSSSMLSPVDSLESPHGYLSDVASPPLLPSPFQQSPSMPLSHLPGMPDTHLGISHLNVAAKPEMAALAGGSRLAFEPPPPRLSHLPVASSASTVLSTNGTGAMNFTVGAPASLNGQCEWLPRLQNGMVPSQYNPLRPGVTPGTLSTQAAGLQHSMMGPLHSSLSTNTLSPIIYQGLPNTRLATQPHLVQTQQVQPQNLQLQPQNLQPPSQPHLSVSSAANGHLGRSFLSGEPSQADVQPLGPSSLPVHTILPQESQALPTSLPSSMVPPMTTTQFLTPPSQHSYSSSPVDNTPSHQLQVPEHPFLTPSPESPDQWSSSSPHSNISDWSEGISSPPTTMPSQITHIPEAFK
UniProt Q8BUN5: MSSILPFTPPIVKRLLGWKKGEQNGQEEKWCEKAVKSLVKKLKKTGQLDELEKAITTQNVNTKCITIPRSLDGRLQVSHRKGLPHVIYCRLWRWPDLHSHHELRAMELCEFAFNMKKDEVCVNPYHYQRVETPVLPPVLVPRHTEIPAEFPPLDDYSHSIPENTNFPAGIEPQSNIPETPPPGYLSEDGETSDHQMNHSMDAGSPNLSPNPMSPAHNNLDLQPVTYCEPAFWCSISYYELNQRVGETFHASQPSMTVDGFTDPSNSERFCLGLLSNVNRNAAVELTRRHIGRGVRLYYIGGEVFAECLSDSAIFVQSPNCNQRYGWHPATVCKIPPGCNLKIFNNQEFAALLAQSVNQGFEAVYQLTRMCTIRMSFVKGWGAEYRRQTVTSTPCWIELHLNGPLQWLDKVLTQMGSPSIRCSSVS

Experiments:
[1] = target: GST-NICD (mouse) (UniProt Q01705); assay: pull-down; GST-fusion proteins on glutathione-agarose beads mixed (1:1) with 35S-labelled in vitro translated proteins in lysis buffer (50 mM Tris pH 8.0, 150 mM NaCl, 0.1% SDS, sodium deoxycholate, protease inhibitors), 1 h at 4°C; SDS-PAGE, autoradiography; only the target purified
[2] = target: GST-Smad3 (UniProt Q8BUN5); assay: as above

binding [1]: no binding
binding [2]: binds
B1: Foxc2 (protein, UniProt Q61850 1-494)
chain: MQARYSVSDPNALGVVPYLSEQNYYRAAGSYGGMASPMGVYSGHPEQYGAGMGRSYAPYHHQPAAPKDLVKPPYSYIALITMAIQNAPEKKITLNGIYQFIMDRFPFYRENKQGWQNSIRHNLSLNECFVKVPRDDKKPGKGSYWTLDPDSYNMFENGSFLRRRRRFKKKDVPKDKEERAHLKEPPSTTAKGAPTGTPVADGPKEAEKKVVVKSEAASPALPVITKVETLSPEGALQASPRSASSTPAGSPDGSLPEHHAAAPNGLPGFSVETIMTLRTSPPGGDLSPAAARAGLVVPPLALPYAAAPPAAYTQPCAQGLEAAGSAGYQCSMRAMSLYTGAERPAHVCVPPALDEALSDHPSGPGSPLGALNLAAGQEGALGASGHHHQHHGHLHPQAPPPAPQPPPAPQPATQATSWYLNHGGDLSHLPGHTFATQQQTFPNVREMFNSHRLGLDNSSLGESQVSNASCQLPYRATPSLYRHAAPYSYDCTKY
modifications: [35S]methionine-labelled

binding [1]: no binding
binding [2]: binds
B2: Foxc1 (protein, UniProt Q61572 1-553)
chain: MQARYSVSSPNSLGVVPYLGGEQSYYRAAAAAAGGGYTAMPAPMSVYSHPAHAEQYPGSMARAYGPYTPQPQPKDMVKPPYSYIALITMAIQNAPDKKITLNGIYQFIMDRFPFYRDNKQGWQNSIRHNLSLNECFVKVPRDDKKPGKGSYWTLDPDSYNMFENGSFLRRRRRFKKKDAVKDKEEKGRLHLQEPPPPQAGRQPAPAPPEQAEGSAPGPQPPPVRIQDIKTENGTCPSPPQPLSPAAALGSGSAATVPKIESPDSSSSSLSSGSSPPGSLPSARPLSLDAAEPAPPPQPAPPPHHSQGFSVDNIMTSLRGSPQGSAAELGSGLLASAAASSRAGIAPPLALGAYSPGQSSLYSSPCSQSSSAGSSGGGGGGGGGGGGSSSAAGTGGAATYHCNLQAMSLYAAGERGGHLQGPAGGAGSAAVDDPLPDYSLPPATSSSSSSLSHGGGGQEASHHPASHQGRLTSWYLNQAGGDLGHLASAAAAAAAAGYPGQQQNFHSVREMFESQRIGLNNSPVNGNSSCQMAFPASQSLYRTSGAFVYDCSKF
modifications: [35S]methionine-labelled
